From paper doi:10.1101/2021.02.11.430699 come the findings set out here.

Where a chain is given by its changes, count along the chain named. Names and notes keep the numbering of the source. Results are given in words; binding and its absence hold for the method and conditions named. For some of these results: In cells and extracts the contact can be indirect. Some binding calls cover weakened binding; strength is not graded here. Tags and fused reporters may be left off the sequences shown.

The target in test [1] is T1, MBP-Pol3-CTD, CysA + CysB (Pol3 991-1097) (S. cerevisiae) (UniProt P15436).
T1 sequence: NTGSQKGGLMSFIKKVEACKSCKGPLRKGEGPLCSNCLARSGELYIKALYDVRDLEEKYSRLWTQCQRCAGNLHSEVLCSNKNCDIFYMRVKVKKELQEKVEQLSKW
Briefly: pull-down.

Test [2] deals with T2, Pol31-W417A, LexA bait fusion (S. cerevisiae) (UniProt P46957).
T2 sequence: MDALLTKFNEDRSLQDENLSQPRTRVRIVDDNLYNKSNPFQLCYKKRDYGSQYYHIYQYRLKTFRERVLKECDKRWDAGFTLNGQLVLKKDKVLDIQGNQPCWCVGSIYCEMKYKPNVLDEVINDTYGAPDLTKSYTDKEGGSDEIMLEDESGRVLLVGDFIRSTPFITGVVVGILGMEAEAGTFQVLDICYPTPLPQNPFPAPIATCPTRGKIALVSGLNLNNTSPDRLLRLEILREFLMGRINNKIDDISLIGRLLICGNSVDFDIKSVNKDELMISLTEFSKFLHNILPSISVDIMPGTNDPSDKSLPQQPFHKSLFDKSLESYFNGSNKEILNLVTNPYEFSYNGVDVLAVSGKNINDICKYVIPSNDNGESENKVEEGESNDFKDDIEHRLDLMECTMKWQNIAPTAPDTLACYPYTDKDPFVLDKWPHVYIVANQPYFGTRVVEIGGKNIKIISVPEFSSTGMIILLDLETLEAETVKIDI
Briefly: two-hybrid.

For test [3], the target named is T3, Pol31 wild type, LexA bait fusion (S. cerevisiae) (UniProt P46957).
T3 sequence: T2 sequence with A417W
Briefly: two-hybrid.

B1: HA-tagged Pol31 wild type (protein, UniProt P46957 1-487)
chain: T2 sequence with A417W
Take B1: the binding entry in test [1] is “binds”.

B2: HA-tagged Pol31-T415A (protein, UniProt P46957 1-487)
chain: T2 sequence with T415A, A417W
For the molecule B2, the binding result in test [1] was “binds”.

B3: HA-tagged Pol31-W417A (protein, UniProt P46957 1-487)
chain: T2 sequence
As for B3, the binding result in test [1] is “binds”.

B4: Pol3 CysB domain (1032-1097), B42 prey fusion (domain or fragment, UniProt P15436 1032-1097)
chain: GELYIKALYDVRDLEEKYSRLWTQCQRCAGNLHSEVLCSNKNCDIFYMRVKVKKELQEKVEQLSKW
For the molecule B4, the binding entry in test [2] and in test [3] was “binds” each time.

B5: Pol3 C-terminus (991-1097) with the paired CysA and CysB domains, B42 prey fusion (domain or fragment, UniProt P15436 991-1097)
chain: T1 sequence
For the molecule B5, the binding result in test [2] and in test [3] was “binds” each time.
